Laboratory results: PubChem BioAssay AID1224829 (NIAID, 2016)
The deposit covers about 3,800 reagents; shown is a random part of them. 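Calls cover raised and lowered translocation; gene median uses one vendor's three siRNAs; qiagen siRNAs acted more weakly than ambion siRNAs.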 Reagents against one gene are numbered here. Further read-outs or replicates are left out here.

Test: 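Follow-up of TLR4-NF-kappaB regulators using six separate siRNAs for each gene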 (follow-up of hits)
System: mouse RAW264.7 G9 macrophage reporter cells
Reagent: single siRNA against mouse genes, 100 nM
Timing: 2 days of siRNA knock-down, then 40 min of LPS before fixing
Treatment: LPS (Salmonella minnesota R595) at 10 ng/ml
Detection: 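High-content images after 40 min LPS exposure; GFP-p65 nucleus to surrounding ring signal ratio, normalised to plate median and non-targeting control wells, expressed as z-score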
Scale: p65 translocation z-score: higher = more nuclear NF-kappaB p65 after LPS
Call rule: 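Active means the replicate-mean z-score lies beyond plus or minus 2, in either direction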
Meaning of the calls: active = changed p65 translocation (either direction); inactive = no clear change

The opening 3 records as a preview:
{"target gene": "Or4p18", "siRNA no.": 1, "siRNA vendor or control pool": "ambion single siRNA", "p65 translocation z-score, replicate mean": -1.02, "p65 translocation z-score, replicate 1": -0.294, "outcome": "inactive"}
{"target gene": "Or4p18", "siRNA no.": 2, "siRNA vendor or control pool": "ambion single siRNA", "p65 translocation z-score, replicate mean": 0.689, "p65 translocation z-score, replicate 1": 0.766, "outcome": "inactive"}
{"target gene": "Or4p18", "siRNA no.": 3, "siRNA vendor or control pool": "ambion single siRNA", "p65 translocation z-score, replicate mean": -3.02, "p65 translocation z-score, replicate 1": -1.78, "outcome": "active"}

Results, from the first entry:
{"target gene": "Or4p18", "siRNA no.": 1, "siRNA vendor or control pool": "ambion single siRNA", "p65 translocation z-score, replicate mean": -1.02, "p65 translocation z-score, replicate 1": -0.294, "outcome": "inactive"}
{"target gene": "Or4p18", "siRNA no.": 2, "siRNA vendor or control pool": "ambion single siRNA", "p65 translocation z-score, replicate mean": 0.689, "p65 translocation z-score, replicate 1": 0.766, "outcome": "inactive"}
{"target gene": "Or4p18", "siRNA no.": 3, "siRNA vendor or control pool": "ambion single siRNA", "p65 translocation z-score, replicate mean": -3.02, "p65 translocation z-score, replicate 1": -1.78, "outcome": "active"}
{"target gene": "Or4p18", "siRNA no.": 4, "siRNA vendor or control pool": "qiagen single siRNA", "p65 translocation z-score, replicate mean": 0.279, "p65 translocation z-score, replicate 1": -0.704, "outcome": "inactive"}
{"target gene": "Or4p18", "siRNA no.": 5, "siRNA vendor or control pool": "qiagen single siRNA", "p65 translocation z-score, replicate mean": -0.255, "p65 translocation z-score, replicate 1": -0.42, "outcome": "inactive"}
{"target gene": "Or4p18", "siRNA no.": 6, "siRNA vendor or control pool": "qiagen single siRNA", "p65 translocation z-score, replicate mean": -1.4, "p65 translocation z-score, replicate 1": -2.71, "outcome": "inactive"}
{"target gene": "Casp4", "siRNA no.": 1, "siRNA vendor or control pool": "ambion single siRNA", "p65 translocation z-score, replicate mean": -2.48, "p65 translocation z-score, replicate 1": -1.5, "outcome": "active"}
{"target gene": "Casp4", "siRNA no.": 2, "siRNA vendor or control pool": "ambion single siRNA", "p65 translocation z-score, replicate mean": -2.32, "p65 translocation z-score, replicate 1": -2.4, "outcome": "active"}
{"target gene": "Casp4", "siRNA no.": 3, "siRNA vendor or control pool": "ambion single siRNA", "p65 translocation z-score, replicate mean": -5.31, "p65 translocation z-score, replicate 1": -4.65, "outcome": "active"}
{"target gene": "Casp4", "siRNA no.": 4, "siRNA vendor or control pool": "qiagen single siRNA", "p65 translocation z-score, replicate mean": 1.33, "p65 translocation z-score, replicate 1": 0.47, "outcome": "inactive"}
{"target gene": "Casp4", "siRNA no.": 5, "siRNA vendor or control pool": "qiagen single siRNA", "p65 translocation z-score, replicate mean": 1.21, "p65 translocation z-score, replicate 1": 0.793, "outcome": "inactive"}
{"target gene": "Casp4", "siRNA no.": 6, "siRNA vendor or control pool": "qiagen single siRNA", "p65 translocation z-score, replicate mean": 0.519, "p65 translocation z-score, replicate 1": 0.792, "outcome": "inactive"}
{"target gene": "Paox", "siRNA no.": 1, "siRNA vendor or control pool": "ambion single siRNA", "p65 translocation z-score, replicate mean": 2.54, "p65 translocation z-score, replicate 1": 2.49, "outcome": "active"}
{"target gene": "Paox", "siRNA no.": 2, "siRNA vendor or control pool": "ambion single siRNA", "p65 translocation z-score, replicate mean": -7.59, "p65 translocation z-score, replicate 1": -7.59, "outcome": "active"}
{"target gene": "Paox", "siRNA no.": 3, "siRNA vendor or control pool": "ambion single siRNA", "p65 translocation z-score, replicate mean": -5.52, "p65 translocation z-score, replicate 1": -5.95, "outcome": "active"}
{"target gene": "Paox", "siRNA no.": 4, "siRNA vendor or control pool": "qiagen single siRNA", "p65 translocation z-score, replicate mean": 0.415, "p65 translocation z-score, replicate 1": 1.13, "outcome": "inactive"}
{"target gene": "Paox", "siRNA no.": 5, "siRNA vendor or control pool": "qiagen single siRNA", "p65 translocation z-score, replicate mean": -1.12, "p65 translocation z-score, replicate 1": -1.93, "outcome": "inactive"}
{"target gene": "Paox", "siRNA no.": 6, "siRNA vendor or control pool": "qiagen single siRNA", "p65 translocation z-score, replicate mean": -0.279, "p65 translocation z-score, replicate 1": -0.639, "outcome": "inactive"}
{"target gene": "Ybey", "siRNA no.": 1, "siRNA vendor or control pool": "ambion single siRNA", "p65 translocation z-score, replicate mean": 4.8, "p65 translocation z-score, replicate 1": 6.2, "outcome": "active"}
{"target gene": "Ybey", "siRNA no.": 2, "siRNA vendor or control pool": "ambion single siRNA", "p65 translocation z-score, replicate mean": -2.21, "p65 translocation z-score, replicate 1": -2.03, "outcome": "active"}
{"target gene": "Ybey", "siRNA no.": 3, "siRNA vendor or control pool": "ambion single siRNA", "p65 translocation z-score, replicate mean": -0.184, "p65 translocation z-score, replicate 1": -0.184, "outcome": "inactive"}
{"target gene": "Ybey", "siRNA no.": 4, "siRNA vendor or control pool": "qiagen single siRNA", "p65 translocation z-score, replicate mean": 2.52, "p65 translocation z-score, replicate 1": 2.77, "outcome": "active"}
{"target gene": "Ybey", "siRNA no.": 5, "siRNA vendor or control pool": "qiagen single siRNA", "p65 translocation z-score, replicate mean": 2.09, "p65 translocation z-score, replicate 1": 1.99, "outcome": "active"}
{"target gene": "Ybey", "siRNA no.": 6, "siRNA vendor or control pool": "qiagen single siRNA", "p65 translocation z-score, replicate mean": 1.57, "p65 translocation z-score, replicate 1": 1.5, "outcome": "inactive"}
